Assay in all cases: native gel or EMSA; nuclear extract from HDF-TERT cells (untreated or treated with IFNα or IFNγ for 24 hr) with a 32P-labeled DNA probe (E1A-ENH, Ad5 nt 271-288); composition of the DNA-protein complexes identified with specific antibodies to E2F, DP and Rb family members
In experiment [1] the target is E2F-4 (human (endogenous in HDF-TERT)), Q16254. The conditions noted are these: remark: other sources report otherwise.
In experiment [2] the target is E2F-4 (human (endogenous in HDF-TERT)) (UniProt Q16254).
The target in experiment [3] is E2F3 (human (endogenous in HDF-TERT)) (UniProt O00716).

By UniProt entry, the sequences of proteins in these tests, tags left out. Where a name states a change or a piece, a line headed by the entry shows the natural chain unless it says otherwise.
UniProt Q16254: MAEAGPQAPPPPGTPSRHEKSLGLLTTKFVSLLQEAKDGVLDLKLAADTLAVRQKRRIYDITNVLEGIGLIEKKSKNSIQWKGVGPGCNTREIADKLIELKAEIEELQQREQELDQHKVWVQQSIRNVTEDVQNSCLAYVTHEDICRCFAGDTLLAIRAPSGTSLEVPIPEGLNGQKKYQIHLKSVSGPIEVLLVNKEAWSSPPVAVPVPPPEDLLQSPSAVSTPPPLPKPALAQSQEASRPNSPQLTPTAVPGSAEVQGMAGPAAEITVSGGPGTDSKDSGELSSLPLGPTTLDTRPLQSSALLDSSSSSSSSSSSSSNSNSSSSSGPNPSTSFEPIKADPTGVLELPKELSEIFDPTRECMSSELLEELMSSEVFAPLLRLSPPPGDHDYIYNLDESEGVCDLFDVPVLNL
UniProt O00716: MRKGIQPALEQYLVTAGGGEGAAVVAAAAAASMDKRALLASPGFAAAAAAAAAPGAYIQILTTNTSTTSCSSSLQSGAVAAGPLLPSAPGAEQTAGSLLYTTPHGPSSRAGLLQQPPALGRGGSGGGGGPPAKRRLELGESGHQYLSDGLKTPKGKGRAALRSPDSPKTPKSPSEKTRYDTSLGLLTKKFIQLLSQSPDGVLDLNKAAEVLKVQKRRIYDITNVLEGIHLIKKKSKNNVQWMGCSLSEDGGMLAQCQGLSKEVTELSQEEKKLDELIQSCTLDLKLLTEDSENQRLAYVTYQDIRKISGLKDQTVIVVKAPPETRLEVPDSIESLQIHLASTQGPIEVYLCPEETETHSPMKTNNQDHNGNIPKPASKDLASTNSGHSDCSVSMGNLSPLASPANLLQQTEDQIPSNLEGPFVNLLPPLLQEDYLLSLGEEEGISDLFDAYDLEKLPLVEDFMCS

These are yes or no findings as the source states them, for the method shown. Some entries that bind do so weakly or less than the wild type.

B1: p130, Q08999 1-1139 (protein)
chain: MPSGGDQSPPPPPPPPAAAASDEEEEDDGEAEDAAPPAESPTPQIQQRFDELCSRLNMDEAARAEAWDSYRSMSESYTLEGNDLHWLACALYVACRKSVPTVSKGTVEGNYVSLTRILKCSEQSLIEFFNKMKKWEDMANLPPHFRERTERLERNFTVSAVIFKKYEPIFQDIFKYPQEEQPRQQRGRKQRRQPCTVSEIFHFCWVLFIYAKGNFPMISDDLVNSYHLLLCALDLVYGNALQCSNRKELVNPNFKGLSEDFHAKDSKPSSDPPCIIEKLCSLHDGLVLEAKGIKEHFWKPYIRKLYEKKLLKGKEENLTGFLEPGNFGESFKAINKAYEEYVLSVGNLDERIFLGEDAEEEIGTLSRCLNAGSGTETAERVQMKNILQQHFDKSKALRISTPLTGVRYIKENSPCVTPVSTATHSLSRLHTMLTGLRNAPSEKLEQILRTCSRDPTQAIANRLKEMFEIYSQHFQPDEDFSNCAKEIASKHFRFAEMLYYKVLESVIEQEQKRLGDMDLSGILEQDAFHRSLLACCLEVVTFSYKPPGNFPFITEIFDVPLYHFYKVIEVFIRAEDGLCREVVKHLNQIEEQILDHLAWKPESPLWEKIRDNENRVPTCEEVMPPQNLERADEICIAGSPLTPRRVTEVRADTGGLGRSITSPTTLYDRYSSPPASTTRRRLFVENDSPSDGGTPGRMPPQPLVNAVPVQNVSGETVSVTPVPGQTLVTMATATVTANNGQTVTIPVQGIANENGGITFFPVQVNVGGQAQAVTGSIQPLSAQALAGSLSSQQVTGTTLQVPGQVAIQQISPGGQQQKQGQSVTSSSNRPRKTSSLSLFFRKVYHLAAVRLRDLCAKLDISDELRKKIWTCFEFSIIQCPELMMDRHLDQLLMCAIYVMAKVTKEDKSFQNIMRCYRTQPQARSQVYRSVLIKGKRKRRNSGSSDSRSHQNSPTELNKDRTSRDSSPVMRSSSTLPVPQPSSAPPTPTRLTGANSDMEEEERGDLIQFYNNIYIKQIKTFAMKYSQANMDAPPLSPYPFVRTGSPRRIQLSQNHPVYISPHKNETMLSPREKIFYYFSNSPSKRLREINSMIRTGETPTKKRGILLEDGSESPAKRICPENHSALLRRLQDVANDRGSH
With B1, the binding result in experiment [1] was “binds”.

B2: p107 (protein, UniProt P28749 1-1068)
chain: MFEDKPHAEGAAVVAAAGEALQALCQELNLDEGSAAEALDDFTAIRGNYSLEGEVTHWLACSLYVACRKSIIPTVGKGIMEGNCVSLTRILRSAKLSLIQFFSKMKKWMDMSNLPQEFRERIERLERNFEVSTVIFKKYEPIFLDIFQNPYEEPPKLPRSRKQRRIPCSVKDLFNFCWTLFVYTKGNFRMIGDDLVNSYHLLLCCLDLIFANAIMCPNRQDLLNPSFKGLPSDFHTADFTASEEPPCIIAVLCELHDGLLVEAKGIKEHYFKPYISKLFDRKILKGECLLDLSSFTDNSKAVNKEYEEYVLTVGDFDERIFLGADAEEEIGTPRKFTRDTPLGKLTAQANVEYNLQQHFEKKRSFAPSTPLTGRRYLREKEAVITPVASATQSVSRLQSIVAGLKNAPSDQLINIFESCVRNPVENIMKILKGIGETFCQHYTQSTDEQPGSHIDFAVNRLKLAEILYYKILETVMVQETRRLHGMDMSVLLEQDIFHRSLMACCLEIVLFAYSSPRTFPWIIEVLNLQPFYFYKVIEVVIRSEEGLSRDMVKHLNSIEEQILESLAWSHDSALWEALQVSANKVPTCEEVIFPNNFETGNGGNVQGHLPLMPMSPLMHPRVKEVRTDSGSLRRDMQPLSPISVHERYSSPTAGSAKRRLFGEDPPKEMLMDKIITEGTKLKIAPSSSITAENVSILPGQTLLTMATAPVTGTTGHKVTIPLHGVANDAGEITLIPLSMNTNQESKVKSPVSLTAHSLIGASPKQTNLTKAQEVHSTGINRPKRTGSLALFYRKVYHLASVRLRDLCLKLDVSNELRRKIWTCFEFTLVHCPDLMKDRHLDQLLLCAFYIMAKVTKEERTFQEIMKSYRNQPQANSHVYRSVLLKSIPREVVAYNKNINDDFEMIDCDLEDATKTPDCSSGPVKEERGDLIKFYNTIYVGRVKSFALKYDLANQDHMMDAPPLSPFPHIKQQPGSPRRISQQHSIYISPHKNGSGLTPRSALLYKFNGSPSKSLKDINNMIRQGEQRTKKRVIAIDSDAESPAKRVCQENDDVLLKRLQDVVSERANH
Regarding B2, the binding entry in experiment [2] is “binds”.

B3: Rb (protein, UniProt P06400 1-928)
chain: MPPKTPRKTAATAAAAAAEPPAPPPPPPPEEDPEQDSGPEDLPLVRLEFEETEEPDFTALCQKLKIPDHVRERAWLTWEKVSSVDGVLGGYIQKKKELWGICIFIAAVDLDEMSFTFTELQKNIEISVHKFFNLLKEIDTSTKVDNAMSRLLKKYDVLFALFSKLERTCELIYLTQPSSSISTEINSALVLKVSWITFLLAKGEVLQMEDDLVISFQLMLCVLDYFIKLSPPMLLKEPYKTAVIPINGSPRTPRRGQNRSARIAKQLENDTRIIEVLCKEHECNIDEVKNVYFKNFIPFMNSLGLVTSNGLPEVENLSKRYEEIYLKNKDLDARLFLDHDKTLQTDSIDSFETQRTPRKSNLDEEVNVIPPHTPVRTVMNTIQQLMMILNSASDQPSENLISYFNNCTVNPKESILKRVKDIGYIFKEKFAKAVGQGCVEIGSQRYKLGVRLYYRVMESMLKSEEERLSIQNFSKLLNDNIFHMSLLACALEVVMATYSRSTSQNLDSGTDLSFPWILNVLNLKAFDFYKVIESFIKAEGNLTREMIKHLERCEHRIMESLAWLSDSPLFDLIKQSKDREGPTDHLESACPLNLPLQNNHTAADMYLSPVRSPKKKGSTTRVNSTANAETQATSAFQTQKPLKSTSLSLFYKKVYRLAYLRLNTLCERLLSEHPELEHIIWTLFQHTLQNEYELMRDRHLDQIMMCSMYGICKVKNIDLKFKIIVTAYKDLPHAVQETFKRVLIKEEEYDSIIVFYNSVFMQRLKTNILQYASTRPPTLSPIPHIPRSPYKFPSSPLRIPGGNIYISPLKSPYKISEGLPTPTKMTPRSRILVSIGESFGTSEKFQKINQMVCNSDRVLKRSAEGSNPPKPLKKLRFDIEGSDEADGSKHLPGESKFQQKLAEMTSTRTRMQKQKMNDSMDTSNKEEK
As for B3, the binding result in experiment [3] is given as “binds”.
